Here are results for one molecule from article PMC8016886.

Protein sequences, listed by entry. Tags and fused reporters are not part of them.
UniProt P09630: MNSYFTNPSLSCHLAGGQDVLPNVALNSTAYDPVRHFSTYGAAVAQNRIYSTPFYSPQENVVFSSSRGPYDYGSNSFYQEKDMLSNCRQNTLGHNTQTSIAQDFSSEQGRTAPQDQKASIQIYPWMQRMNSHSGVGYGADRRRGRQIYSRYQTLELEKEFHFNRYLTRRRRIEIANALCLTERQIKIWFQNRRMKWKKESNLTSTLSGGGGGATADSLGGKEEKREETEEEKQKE

The target in this assay is homeobox C6 (HOXC6), Flag-tagged, stably overexpressed in HCT116 cells (HOXC6-OE) (human) (UniProt P09630). Briefly: affinity purification with mass spectrometry; FLAG Immunoprecipitation Kit (Sigma FLAGIPT1) on lysates of HOXC6-OE and NC HCT116 cells; eluates identified by LC-MS/MS (Mascot search).

No constants are given. Whether binding was seen depends on the method and setting. Binding seen in cells or lysates may run through a third protein. A yes stands for co-enrichment or nearness to the bait. Other partners may have been found.

B1: DKK1 (protein, UniProt O94907 32-266)
chain: TLNSVLNSNAIKNLPPPLGGAAGHPGSAVSAAPGILYPGGNKYQTIDNYQPYPCAEDEECGTDEYCASPTRGGDAGVQICLACRKRRKRCMRHAMCCPGNYCKNGICVSSDQNHFRGEIEETITESFGNDHSTLDGYSRRTTLSSKMYHTKGQEGSVCLRSSDCASGLCCARHFWSKICKPVLKEGQVCTKHRRKGSHGLEIFQRCYCGEGLSCRIQKDHHQASNSSRLHTCQRH
For B1, the binding entry was “binds”.
